In the supplement of paper PMC3334620:
Over roughly 33,000 sequences, “E-score (-0.5 to 0.5)” has its median near -0.0059; the highest 2% begin near 0.26. The list shows a part of the results.

What follows are sequences tested against T1, Cin5 (UniProt P40917) (assay: PBM E-score (8-mer binding enrichment) (E-score (-0.5 to 0.5)); higher = stronger / more preferred TF binding). Details: protein concentration: 100 nM; construct: GST-full length.
T1 sequence: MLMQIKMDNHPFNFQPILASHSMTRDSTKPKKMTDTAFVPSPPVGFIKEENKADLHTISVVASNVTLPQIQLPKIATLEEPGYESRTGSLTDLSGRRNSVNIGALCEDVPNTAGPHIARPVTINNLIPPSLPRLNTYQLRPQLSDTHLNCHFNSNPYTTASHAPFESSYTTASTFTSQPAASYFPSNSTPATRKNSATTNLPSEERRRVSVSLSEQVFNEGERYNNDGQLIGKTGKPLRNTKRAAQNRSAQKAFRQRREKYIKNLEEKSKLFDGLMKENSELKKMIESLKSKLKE
Description: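 Universal 'all 10-mer' protein binding microarrays (Agilent AMADID 015681) probed with GST-tagged S. cerevisiae TFs (full-length or DBD) made by in vitro transcription/translation (PURExpress), about 100-200 nM. Bound TF was detected with fluorescent anti-GST. Each ungapped 8-mer (which stands for itself and its reverse complement) is scored by the PBM enrichment score (E-score), a modified Wilcoxon-Mann-Whitney statistic from -0.5 to +0.5, computed with the Universal PBM Analysis Suite. Scale: above 0.35 generally sequence-specific binding.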

First: ATGTAGGG
Second: ACTGGATA
The “PBM E-score” value of the first is lower: -0.151 for the first, 0.189 for the second.

Going from CTTGCTAC to ACGTGGTC, the “PBM E-score” value rises from -0.096 to -0.0603.

Compared with AGTTAATG, ATTAATCC is higher in “PBM E-score” value: 0.175 for the first, 0.18 for the second.

First: CCCACGCA
Second: TCTGCTAA
The “PBM E-score” value of the first is higher: -0.0107 for the first, -0.052 for the second.

Compared with AATAATAG, CTCGCAAC is lower in “PBM E-score” value: 0.198 for the first, -0.0335 for the second.

Compared with GCCTACGC, CATCGCGC is higher in “PBM E-score” value: -0.137 for the first, 0.0145 for the second.

Compared with AAAGTATG, CAAAAAAG is lower in “PBM E-score” value: 0.163 for the first, 0.141 for the second.

Compared with ACGTGGTA, GATACCAA is higher in “PBM E-score” value: -0.0413 for the first, 0.14 for the second.

Compared with CTTGACGA, TCGTTTCA is higher in “PBM E-score” value: -0.194 for the first, 0.0907 for the second.

Going from CGAGTCGA to ACATTGCC, the “PBM E-score” value falls from 0.0554 to -0.0456.

First: CGGGAGAG
Second: AGCGAATC
The “PBM E-score” value of the first is lower: -0.206 for the first, 0.009 for the second.

Going from GATACTCC to GCCTAGAC, the “PBM E-score” value falls from 0.00607 to -0.241.

First: CAGTATAA
Second: AAACAGTC
The “PBM E-score” value of the first is higher: 0.284 for the first, -0.151 for the second.

Compared with CATATTGG, CTTGGCGC is lower in “PBM E-score” value: 0.165 for the first, -0.0524 for the second.

First: CGATAGAA
Second: GAAATCAA
The “PBM E-score” value of the first is lower: 0.0849 for the first, 0.167 for the second.

Compared with CAGTTCGC, AATAAAGC is lower in “PBM E-score” value: 0.103 for the first, -0.0487 for the second.

Compared with AGGATCGG, AGACCCGC is higher in “PBM E-score” value: -0.108 for the first, -0.0923 for the second.

First: GATCAGCA
Second: TAAATCAA
The “PBM E-score” value of the first is lower: 0.0782 for the first, 0.155 for the second.

First: AGACCCCA
Second: ACCGGAGG
The “PBM E-score” value of the first is higher: 0.11 for the first, -0.265 for the second.

First: ACAGAGGA
Second: ATGAGACG
The “PBM E-score” value of the first is higher: -0.0466 for the first, -0.102 for the second.

Going from TGAGCCCA to ACGGATCG, the “PBM E-score” value falls from 0.0383 to -0.121.

First: ACGGTCTA
Second: GCACGGAC
The “PBM E-score” value of the first is lower: -0.181 for the first, 0.0808 for the second.

First: ACGTATTG
Second: TGCTTACA
The “PBM E-score” value of the first is lower: 0.0396 for the first, 0.305 for the second.

Going from CGCGTCTA to AGCAACAG, the “PBM E-score” value falls from -0.0222 to -0.0741.

Compared with GCTCCGGA, CTGACACA is higher in “PBM E-score” value: -0.0137 for the first, 0.0324 for the second.

First: CACTGTAA
Second: ATGTTCAG
The “PBM E-score” value of the first is higher: 0.0989 for the first, -0.11 for the second.

First: ATAAGAAG
Second: ACAAGAGT
The “PBM E-score” value of the first is higher: 0.116 for the first, -0.0535 for the second.

First: CATTACTA
Second: GAGGGGGC
The “PBM E-score” value of the first is higher: 0.189 for the first, -0.415 for the second.

Compared with ATACGCCC, ATCCACGA is higher in “PBM E-score” value: -0.197 for the first, 0.0249 for the second.

First: CAAGCAGC
Second: AGGTTCTA
The “PBM E-score” value of the first is higher: 0.00785 for the first, -0.0635 for the second.

Going from AAAATGCT to ATCAGTGA, the “PBM E-score” value falls from 0.197 to 0.0123.

Going from GGAGTTAA to CGATGTCC, the “PBM E-score” value falls from -0.0106 to -0.0143.

Going from CCTATGAC to CGTGGTCC, the “PBM E-score” value falls from -0.204 to -0.236.

First: AGAAGGTA
Second: AGTTGAGC
The “PBM E-score” value of the first is higher: 0.166 for the first, 0.113 for the second.

Going from CTGGCGAA to CCACAGGG, the “PBM E-score” value falls from -0.107 to -0.266.

First: AAGTCGAG
Second: GTTCATTA
The “PBM E-score” value of the first is lower: -0.093 for the first, 0.145 for the second.

First: GTTTAGAA
Second: GGCCCGCC
The “PBM E-score” value of the first is higher: 0.0498 for the first, -0.326 for the second.

Going from CAGTCTTA to CATTGCTC, the “PBM E-score” value falls from -0.0401 to -0.157.

Going from GAAAATAA to ACCAGGTG, the “PBM E-score” value falls from 0.0781 to -0.263.

Compared with GAGACCCA, AACTAAGC is higher in “PBM E-score” value: -0.0041 for the first, 0.225 for the second.

First: GAAAACTC
Second: ATTCGTTC
The “PBM E-score” value of the first is lower: -0.0719 for the first, 0.224 for the second.

Going from CTGAGATC to AGAAGGAC, the “PBM E-score” value falls from -0.154 to -0.211.

Going from ATCTGAGC to CGAGGCAG, the “PBM E-score” value falls from 0.0647 to 0.0214.
